These are yes or no findings as the source states them, for the method shown. In cells and extracts the contact can be indirect. Some entries that bind do so weakly or less than the wild type. Sequences can lack the tags named with a protein.
Tests used:
[1] = target: T1, FLAG-tagged ATGL (adipose triglyceride lipase) (murine) (UniProt Q8BJ56); assay: co-IP; HEK 293T cells co-transfected; lysis buffer 50 mM Tris/HCl pH 7.4, 150 mM NaCl, 1 mM EDTA, 1% NP-40; 1 mg lysate protein incubated with anti-FLAG M2-agarose beads overnight at 4°C; immunoblot of input and IP
T1 sequence: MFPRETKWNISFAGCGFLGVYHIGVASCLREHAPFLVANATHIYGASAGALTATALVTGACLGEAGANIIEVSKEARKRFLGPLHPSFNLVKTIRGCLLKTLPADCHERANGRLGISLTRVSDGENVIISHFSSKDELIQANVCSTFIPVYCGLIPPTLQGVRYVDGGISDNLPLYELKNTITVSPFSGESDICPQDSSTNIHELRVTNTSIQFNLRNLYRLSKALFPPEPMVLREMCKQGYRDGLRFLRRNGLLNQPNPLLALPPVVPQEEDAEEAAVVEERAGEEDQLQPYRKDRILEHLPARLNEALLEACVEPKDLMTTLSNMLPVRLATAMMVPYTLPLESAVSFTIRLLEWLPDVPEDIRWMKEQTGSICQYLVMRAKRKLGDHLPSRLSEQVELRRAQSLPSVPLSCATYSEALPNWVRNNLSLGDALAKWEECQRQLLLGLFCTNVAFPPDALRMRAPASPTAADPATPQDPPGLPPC

Protein sequences, listed by entry. Tags and fused reporters are not part of them.
UniProt Q9DBL9: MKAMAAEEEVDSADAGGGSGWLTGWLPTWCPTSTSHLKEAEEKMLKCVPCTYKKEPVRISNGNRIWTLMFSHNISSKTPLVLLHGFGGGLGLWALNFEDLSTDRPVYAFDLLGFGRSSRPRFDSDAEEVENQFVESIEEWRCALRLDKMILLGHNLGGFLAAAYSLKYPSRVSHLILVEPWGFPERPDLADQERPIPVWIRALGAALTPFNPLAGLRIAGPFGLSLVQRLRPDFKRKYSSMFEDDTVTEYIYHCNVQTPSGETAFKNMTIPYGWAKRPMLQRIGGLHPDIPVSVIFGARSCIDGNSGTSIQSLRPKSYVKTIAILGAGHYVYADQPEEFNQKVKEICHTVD
UniProt P00722: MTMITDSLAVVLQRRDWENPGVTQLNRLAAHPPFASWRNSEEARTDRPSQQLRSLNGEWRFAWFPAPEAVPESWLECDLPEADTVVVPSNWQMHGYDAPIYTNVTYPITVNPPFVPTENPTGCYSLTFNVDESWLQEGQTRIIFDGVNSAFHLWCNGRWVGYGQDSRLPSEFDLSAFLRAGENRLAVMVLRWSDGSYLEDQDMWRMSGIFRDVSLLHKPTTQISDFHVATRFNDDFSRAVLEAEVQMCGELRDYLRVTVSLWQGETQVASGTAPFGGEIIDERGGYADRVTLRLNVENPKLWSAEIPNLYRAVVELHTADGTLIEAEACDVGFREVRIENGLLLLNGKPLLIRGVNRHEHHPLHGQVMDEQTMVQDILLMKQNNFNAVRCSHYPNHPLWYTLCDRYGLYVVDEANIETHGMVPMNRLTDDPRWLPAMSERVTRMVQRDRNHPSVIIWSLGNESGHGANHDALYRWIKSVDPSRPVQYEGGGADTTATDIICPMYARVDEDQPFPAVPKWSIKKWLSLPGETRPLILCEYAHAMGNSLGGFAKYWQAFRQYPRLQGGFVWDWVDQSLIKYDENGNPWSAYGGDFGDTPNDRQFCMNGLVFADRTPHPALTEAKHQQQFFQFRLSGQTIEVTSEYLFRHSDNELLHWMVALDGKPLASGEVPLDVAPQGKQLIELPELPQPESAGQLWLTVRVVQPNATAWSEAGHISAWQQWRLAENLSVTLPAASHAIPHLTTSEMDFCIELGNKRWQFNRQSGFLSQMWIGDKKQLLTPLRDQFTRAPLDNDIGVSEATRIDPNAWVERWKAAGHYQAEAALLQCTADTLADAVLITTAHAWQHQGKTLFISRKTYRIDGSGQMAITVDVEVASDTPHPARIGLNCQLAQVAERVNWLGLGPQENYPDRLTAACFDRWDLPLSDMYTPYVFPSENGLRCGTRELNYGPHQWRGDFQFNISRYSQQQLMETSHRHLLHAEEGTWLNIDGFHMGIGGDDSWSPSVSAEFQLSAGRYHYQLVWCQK

[2] = target: T2, murine FLAG-tagged PNPLA1 (patatin-like phospholipase domain-containing 1) (murine) (UniProt Q3V1D5); assay: as above
T2 sequence: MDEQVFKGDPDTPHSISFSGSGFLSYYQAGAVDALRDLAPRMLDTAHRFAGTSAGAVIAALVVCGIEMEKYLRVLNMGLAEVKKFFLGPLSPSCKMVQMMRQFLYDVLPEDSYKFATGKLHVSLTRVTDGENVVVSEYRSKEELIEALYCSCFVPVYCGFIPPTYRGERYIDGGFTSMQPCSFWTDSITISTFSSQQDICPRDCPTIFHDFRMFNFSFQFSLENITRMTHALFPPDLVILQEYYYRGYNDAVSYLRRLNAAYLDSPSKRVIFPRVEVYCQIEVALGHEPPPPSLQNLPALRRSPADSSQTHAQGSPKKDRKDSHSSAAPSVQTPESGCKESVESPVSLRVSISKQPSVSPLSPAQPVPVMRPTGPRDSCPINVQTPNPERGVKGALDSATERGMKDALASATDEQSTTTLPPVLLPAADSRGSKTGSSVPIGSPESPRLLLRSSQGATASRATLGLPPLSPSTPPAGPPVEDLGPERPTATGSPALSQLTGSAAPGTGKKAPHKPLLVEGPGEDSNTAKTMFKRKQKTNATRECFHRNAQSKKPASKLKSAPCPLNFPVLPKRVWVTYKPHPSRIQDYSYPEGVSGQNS

binding [1]	binding [2]	Substance
binds	binds	murine His-tagged ABHD5 (α/β-hydrolase domain-containing 5) (from UniProt Q9DBL9 1-351)
	no binding	His-β-galactosidase (from UniProt P00722 1-1024) (enzyme)

Reference: article PMC6277169
